In PubChem BioAssay (NCATS):
Inconclusive means that the source gave no clear call. Such entries were picked first, then a sample of the others. A potency beside an inconclusive call is a rough fit, not a confirmed value. Calls of active or inactive are those of the source. Unless noted, the call rests on the fitted dose curve; in most records, active means well fitted cell-killing curve with a large enough effect; inconclusive means small, poorly fitted or top-dose-only effect, or effect the other way; inactive means flat fitted curve, though single readings scatter.

Experiment: Cell viability qHTS assay in S16 Pmp22-F2sN cells - Confirmatory screen (AID 1508641); on activity change, negative = viability loss: on the % scale 0 is the no-effect control and ±100 the full control effect
Details: S16 Schwann cells viability, CellTiter-Glo ATP luminescence, 24 h; activity change, negative = viability loss: at 57.5 µM (top of the series)
Summary of the method: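 CellTiter-Glo luminescence, read after 15 min at room temperature, measured viability. Before that, S16 Pmp22-F2sN cells (500-1,000 per well, DMEM plus 10% FBS) were exposed to compounds for 24 h at 37C.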
Potency means the concentration at half of the fitted maximal effect.

| SMILES | Potency | activity change, negative = viability loss |
| --- | --- | --- |
| CCCCn1c(=N)n(CCOc2ccccc2OC)c2ccccc21 | inconclusive: 38.5 µM [cytotoxic, single point] | – |
| CCN1CCN(c2ccc(NS(=O)(=O)c3c(C)nc4sccn4c3=O)cc2Cl)CC1 | inconclusive: 0.0544 µM [rising, full curve] | – |
| CCOC(=O)c1cc(NC(=O)c2ccccc2)c(=O)n2c1oc1ccc(Cl)cc12 | – | inactive: 10% |
| O=C(NCc1ccccc1)c1cccc(Nc2nc3ccccc3n3nnnc23)c1 | active: 21.7 µM | – |
| O=C(Nc1nc2ccc(F)cc2s1)c1nc(S(=O)(=O)Cc2ccccc2F)ncc1Cl | inconclusive: 43.2 µM [cytotoxic, single point] | – |
| CCN(CC)S(=O)(=O)c1ccc2c(c1)N(CC(=O)NCCCN1CCN(c3cc(Cl)ccc3C)CC1)C(=O)CO2 | inconclusive: 43.2 µM [cytotoxic, single point] | – |
| COc1ccc(NC(=O)c2cc3c(s2)-c2c(C)cccc2OC3)cc1Cl | – | inconclusive: -31.6% [cytotoxic] |
| COC(=O)c1ccccc1NC(=O)c1nc(S(=O)(=O)Cc2cccc(C)c2)ncc1Cl | inconclusive: 43.2 µM [cytotoxic, single point] | – |
| COc1ccc(OC)c(CNS(=O)(=O)c2ccc3[nH]c4c(c3c2)CCCCC4)c1 | – | inactive: 0.782% |
| COc1ccc(N(CC(=O)Nc2cc(Cl)ccc2C)S(=O)(=O)c2c(C)noc2C)cc1 | – | inactive: -8.08% |
| COC(=O)c1c(-c2ccc(Cl)cc2)noc1N1CCN(c2ccc(F)cc2)CC1 | inconclusive: 0.385 µM [rising, full curve, poor fit] | – |
| CCCS(=O)(=O)c1ncc(Cl)c(C(=O)Nc2c(C(=O)Nc3ccccc3)oc3ccccc23)n1 | active: 17.2 µM | – |
| O=C(CCS(=O)(=O)c1nc(-c2cccs2)cc(C(F)(F)F)n1)Nc1ccc(Br)cc1 | inconclusive: 43.2 µM [cytotoxic, single point] | – |
| Cc1cc(Nc2sc(C(=O)c3ccc(F)cc3)c(N)c2C(=O)Nc2ccc(F)cc2)ccc1Cl | inconclusive: 13.7 µM [cytotoxic, partial curve] | – |
| Cc1[nH]c2ccccc2c1C1(O)C(=O)N(Cc2ccccc2)c2ccc(Cl)cc21 (stereo not given) | inconclusive: 38.5 µM [cytotoxic, single point] | – |
| CC(C)(C)c1ccc(C(=O)NCC(c2ccco2)S(=O)(=O)c2ccc(F)cc2)cc1 (stereo not given) | – | inactive: -5.87% |
| COc1ccc(-c2cc(C(F)(F)F)nc(S(C)(=O)=O)n2)cc1 | inconclusive: 38.5 µM [cytotoxic, single point] | – |
| CCOC(=O)c1c(C)[nH]c(CCC(=O)NCCCN2CCN(c3cccc(Cl)c3)CC2)c1C | inconclusive: 0.432 µM [rising, full curve, poor fit] | – |
| CCc1ccccc1Nc1nn2c(=O)c3ccc(C(=O)Nc4cc(C)cc(C)c4)cc3nc2s1 | active: 21.7 µM | – |
| CCOc1ccc(C(=O)N2CCc3cc(OC)c(OC)cc3C2COc2ccc3c(C)cc(=O)oc3c2)cc1OCC (stereo not given) | – | inactive: 1.09% |

Look-ups from the list.
activity change, negative = viability loss with `COc1ccc(OC)c(CNS(=O)(=O)c2ccc3[nH]c4c(c3c2)CCCCC4)c1` is entered as inactive: 0.782%
Potency with `COc1ccc(-c2cc(C(F)(F)F)nc(S(C)(=O)=O)n2)cc1` is entered as inconclusive: 38.5 µM [cytotoxic, single point]

Experiment: Cell-based coincidence reporter assay to measure PMP22 gene transcription in S16 Pmp22-F2sN cells - Confirmatory screen (AID 1508646; active means clear falling dose curves in both reporters; inconclusive means both reporters move, but less clearly or upward; inactive means either reporter flat; the % is the FLuc reporter signal)
Details: S16 Schwann cells Pmp22-F2sN, dual luciferase, 24 h; series mostly up to 57.5 µM; activity change, negative = inhibition: at the top concentration
Summary of the method: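 Coincidence reporter read as sequential FLuc then NLuc luminescence (Nano-Glo Dual-Luciferase, 10 min each). Engineered S16 Pmp22-F2sN Schwann cells, 500-1,000 per well in DMEM/10% FBS, were exposed to compounds for 24 h, 37C.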

| SMILES | activity change, negative = inhibition | Potency |
| --- | --- | --- |
| Cc1c(Cl)cccc1N1C(N)=C(C#N)C(c2cc(CN3CCOCC3)cs2)C2=C1CCCC2=O (stereo not given) | inactive: -30.6% | – |
| CCN1CCOC(=O)C1CC(=O)Nc1cccc(OC)c1 (stereo not given) | – | inconclusive: 43.2 µM [phenotype inactive, single point] |
| COc1ccc(C2Sc3ccccc3NC3=C2C(=O)c2ccccc23)c(OC)c1OC (stereo not given) | – | inconclusive: 4.85 µM [phenotype inactive, full curve, poor fit] |
| Cc1nc2cccnc2n1C1CCN(S(=O)(=O)c2ccc(C(C)C)cc2)CC1 | inactive: -33.3% | – |
| CCOc1ccccc1Nc1sc(C(=O)c2ccc(Cl)cc2)c(N)c1C#N | inactive: -1.61% | – |
